From PubChem BioAssay (EPA / NIEHS)
For part of these data: What follows is the remainder of the data, with few or none of the hits. Records with an inconclusive call do not appear. This is a selection; strong and weak results do not stand in their true shares. Calls of active or inactive are those of the source. How the source made its calls, unless noted: active means hit-call score of the fitted dose curve at least 0.9, where 1 is the maximum; inactive means score below 0.9.

By UniProt entry, the sequences of proteins in these tests, tags left out. Where a name states a change or a piece, a line headed by the entry shows the natural chain unless it says otherwise.
UniProt Q01959, whole entry, looked up: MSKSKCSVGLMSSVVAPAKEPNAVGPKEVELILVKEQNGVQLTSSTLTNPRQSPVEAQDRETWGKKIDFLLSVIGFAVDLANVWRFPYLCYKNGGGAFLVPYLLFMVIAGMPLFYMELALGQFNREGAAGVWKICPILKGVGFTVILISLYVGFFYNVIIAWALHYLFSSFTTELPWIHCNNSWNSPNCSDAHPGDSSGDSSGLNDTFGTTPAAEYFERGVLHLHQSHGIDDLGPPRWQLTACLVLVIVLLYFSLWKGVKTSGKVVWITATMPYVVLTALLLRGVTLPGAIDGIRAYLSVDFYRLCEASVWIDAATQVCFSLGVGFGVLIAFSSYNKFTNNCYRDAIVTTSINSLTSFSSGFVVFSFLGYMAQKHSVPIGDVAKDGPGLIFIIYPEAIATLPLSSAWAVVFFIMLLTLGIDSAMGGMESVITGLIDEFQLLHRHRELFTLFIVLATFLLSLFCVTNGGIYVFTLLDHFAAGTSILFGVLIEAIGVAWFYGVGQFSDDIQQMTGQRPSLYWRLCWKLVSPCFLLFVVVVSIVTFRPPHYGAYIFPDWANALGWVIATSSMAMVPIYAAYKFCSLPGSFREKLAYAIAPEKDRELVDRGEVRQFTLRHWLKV
UniProt P19785, whole entry, looked up: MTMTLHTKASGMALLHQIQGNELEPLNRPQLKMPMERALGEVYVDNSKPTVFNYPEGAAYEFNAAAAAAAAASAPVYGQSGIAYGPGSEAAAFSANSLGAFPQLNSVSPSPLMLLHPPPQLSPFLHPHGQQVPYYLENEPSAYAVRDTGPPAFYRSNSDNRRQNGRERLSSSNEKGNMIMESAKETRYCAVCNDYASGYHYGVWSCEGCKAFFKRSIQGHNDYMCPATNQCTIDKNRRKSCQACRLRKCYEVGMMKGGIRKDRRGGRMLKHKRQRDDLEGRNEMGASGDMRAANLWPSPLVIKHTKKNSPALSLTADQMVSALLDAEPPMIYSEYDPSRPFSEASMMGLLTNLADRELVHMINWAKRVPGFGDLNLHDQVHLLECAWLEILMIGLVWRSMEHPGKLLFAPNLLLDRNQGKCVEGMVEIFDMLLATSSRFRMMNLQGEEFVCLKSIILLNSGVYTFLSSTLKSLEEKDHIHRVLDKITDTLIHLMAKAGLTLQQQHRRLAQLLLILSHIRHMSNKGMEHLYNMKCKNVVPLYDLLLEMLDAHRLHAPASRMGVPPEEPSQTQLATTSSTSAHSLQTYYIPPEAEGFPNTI
UniProt Q5TCH4: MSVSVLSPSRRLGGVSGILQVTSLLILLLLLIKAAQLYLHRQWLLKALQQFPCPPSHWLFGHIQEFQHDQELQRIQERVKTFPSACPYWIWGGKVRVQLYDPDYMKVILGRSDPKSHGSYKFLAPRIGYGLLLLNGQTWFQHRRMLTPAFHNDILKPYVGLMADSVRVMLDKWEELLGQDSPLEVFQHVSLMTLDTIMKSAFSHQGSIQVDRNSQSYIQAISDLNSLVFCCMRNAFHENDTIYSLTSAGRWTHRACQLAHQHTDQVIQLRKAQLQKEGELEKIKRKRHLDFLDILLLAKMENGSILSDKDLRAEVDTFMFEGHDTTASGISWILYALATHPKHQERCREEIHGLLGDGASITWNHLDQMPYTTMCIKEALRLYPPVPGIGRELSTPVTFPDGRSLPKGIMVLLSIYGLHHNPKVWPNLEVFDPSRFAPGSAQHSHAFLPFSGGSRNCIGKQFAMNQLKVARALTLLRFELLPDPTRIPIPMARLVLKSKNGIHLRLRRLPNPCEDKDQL
UniProt P22680: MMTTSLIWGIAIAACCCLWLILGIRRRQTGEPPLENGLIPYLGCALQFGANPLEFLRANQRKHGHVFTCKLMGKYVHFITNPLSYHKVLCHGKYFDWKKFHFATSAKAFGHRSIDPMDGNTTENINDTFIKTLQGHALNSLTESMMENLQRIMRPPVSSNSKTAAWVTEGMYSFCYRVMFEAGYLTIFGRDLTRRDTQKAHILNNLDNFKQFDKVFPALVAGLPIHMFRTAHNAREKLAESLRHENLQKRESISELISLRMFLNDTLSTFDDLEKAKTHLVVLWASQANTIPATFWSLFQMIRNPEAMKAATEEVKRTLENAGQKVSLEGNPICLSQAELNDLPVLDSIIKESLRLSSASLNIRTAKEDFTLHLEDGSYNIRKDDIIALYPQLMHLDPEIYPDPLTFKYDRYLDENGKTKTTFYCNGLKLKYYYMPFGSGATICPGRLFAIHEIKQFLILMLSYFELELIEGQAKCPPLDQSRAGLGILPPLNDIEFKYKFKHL
UniProt P19838: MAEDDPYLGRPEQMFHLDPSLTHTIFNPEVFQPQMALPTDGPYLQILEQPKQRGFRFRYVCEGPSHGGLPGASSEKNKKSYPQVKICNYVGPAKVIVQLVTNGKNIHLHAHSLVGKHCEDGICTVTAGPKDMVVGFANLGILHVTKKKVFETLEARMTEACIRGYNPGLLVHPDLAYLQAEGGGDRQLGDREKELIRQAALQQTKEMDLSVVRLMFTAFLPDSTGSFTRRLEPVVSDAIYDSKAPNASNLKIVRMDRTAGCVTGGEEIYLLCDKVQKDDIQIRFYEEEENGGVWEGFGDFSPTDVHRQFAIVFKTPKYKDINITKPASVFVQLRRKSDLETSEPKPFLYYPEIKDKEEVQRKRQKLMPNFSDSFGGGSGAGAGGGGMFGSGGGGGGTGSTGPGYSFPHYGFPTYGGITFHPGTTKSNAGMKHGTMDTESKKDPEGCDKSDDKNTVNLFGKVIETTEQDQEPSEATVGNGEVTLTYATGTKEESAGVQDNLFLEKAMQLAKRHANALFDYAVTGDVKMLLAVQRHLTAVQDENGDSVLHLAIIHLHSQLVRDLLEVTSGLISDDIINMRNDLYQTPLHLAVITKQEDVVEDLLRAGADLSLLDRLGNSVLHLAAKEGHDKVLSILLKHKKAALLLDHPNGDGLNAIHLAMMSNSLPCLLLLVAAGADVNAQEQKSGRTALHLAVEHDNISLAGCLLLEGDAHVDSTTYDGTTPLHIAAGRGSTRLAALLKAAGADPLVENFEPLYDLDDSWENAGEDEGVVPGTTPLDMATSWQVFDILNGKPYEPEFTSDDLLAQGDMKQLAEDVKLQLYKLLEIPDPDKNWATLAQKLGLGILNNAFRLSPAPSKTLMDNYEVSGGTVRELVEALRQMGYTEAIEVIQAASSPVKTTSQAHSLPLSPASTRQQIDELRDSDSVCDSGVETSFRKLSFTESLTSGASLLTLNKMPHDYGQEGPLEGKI
UniProt Q16236, whole entry, looked up: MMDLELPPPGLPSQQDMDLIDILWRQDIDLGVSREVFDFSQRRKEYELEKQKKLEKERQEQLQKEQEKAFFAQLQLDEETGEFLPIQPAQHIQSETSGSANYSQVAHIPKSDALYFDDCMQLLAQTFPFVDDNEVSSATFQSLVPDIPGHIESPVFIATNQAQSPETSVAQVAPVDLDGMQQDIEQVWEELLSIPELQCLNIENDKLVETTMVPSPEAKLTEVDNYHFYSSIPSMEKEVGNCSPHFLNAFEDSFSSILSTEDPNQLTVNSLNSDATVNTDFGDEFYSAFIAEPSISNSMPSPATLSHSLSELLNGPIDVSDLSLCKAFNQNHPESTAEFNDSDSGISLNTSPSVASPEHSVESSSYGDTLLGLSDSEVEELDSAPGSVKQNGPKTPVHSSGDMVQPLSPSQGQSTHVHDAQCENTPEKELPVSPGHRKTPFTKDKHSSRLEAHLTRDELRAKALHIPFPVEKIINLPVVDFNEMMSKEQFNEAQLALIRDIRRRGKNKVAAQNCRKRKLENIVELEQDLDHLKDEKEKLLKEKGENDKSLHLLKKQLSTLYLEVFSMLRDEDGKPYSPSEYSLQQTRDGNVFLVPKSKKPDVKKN
UniProt P03372, whole entry, looked up: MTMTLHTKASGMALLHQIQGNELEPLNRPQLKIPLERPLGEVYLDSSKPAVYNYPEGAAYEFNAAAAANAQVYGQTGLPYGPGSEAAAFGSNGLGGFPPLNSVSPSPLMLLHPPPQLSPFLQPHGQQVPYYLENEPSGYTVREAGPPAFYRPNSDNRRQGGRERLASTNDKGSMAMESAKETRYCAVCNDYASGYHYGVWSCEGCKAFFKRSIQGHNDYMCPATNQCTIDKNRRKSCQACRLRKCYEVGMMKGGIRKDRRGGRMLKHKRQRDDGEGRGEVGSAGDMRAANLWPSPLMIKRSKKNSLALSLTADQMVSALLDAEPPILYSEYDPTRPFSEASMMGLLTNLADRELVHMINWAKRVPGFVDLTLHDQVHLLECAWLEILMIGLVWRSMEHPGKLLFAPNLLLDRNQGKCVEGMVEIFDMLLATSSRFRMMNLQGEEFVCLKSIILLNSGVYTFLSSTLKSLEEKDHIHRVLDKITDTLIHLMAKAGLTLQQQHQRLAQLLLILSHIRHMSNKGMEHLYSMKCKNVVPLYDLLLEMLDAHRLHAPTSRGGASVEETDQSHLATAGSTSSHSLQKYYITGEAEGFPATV

Assays:
[1] = biological target: human Dopamine Transporter (DAT), SLC6A3 (gene 6531) (UniProt Q01959); assay: NVS_TR_hDAT: NovaScreen (NVS) Transporter Assay for human Dopamine Transporter (DAT) (AID 2283374; active means hit-call score of the fitted dose curve at least 0.9, where 1 is the maximum;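 further: activity means loss of bound radioligand signal relative to DMSO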)
Summary of the method: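 Duplicate single-point screening at 25 uM preceded concentration-series follow-up of actives. Binding was measured by competitive displacement of a radioligand from DAT protein, filter-counted by scintillation 1 h after dosing. Decrease relative to DMSO taken as activity.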

[2] = biological target: mouse Estrogen Receptor alpha (Era), Esr1 (gene 13982) (UniProt P19785); assay: NVS_NR_mERa: NovaScreen (NVS) Nuclear Receptor Binding Assay for mouse Estrogen Receptor alpha (Era) (AID 2283378; active means hit-call score of the fitted dose curve at least 0.9, where 1 is the maximum;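 further: hit means loss of bound radioligand signal relative to DMSO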)
Summary of the method: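 Cell-free radioligand binding with extracted mouse Era protein; competitive displacement of radiolabelled ligand, read by filter-based scintillation counting 18 hours after dosing. Loss of signal versus DMSO baseline taken as binding; single screening concentration 25 uM, actives followed in concentration series.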

[3] = read-out: Cytochrome P450 (CYP1A1), CYP1A1 (gene 1543); assay: LTEA_HepaRG_CYP1A1: Life Technologies and Expression Analysis (LTEA) Assay for Cytochrome P450 (CYP1A1) using HepaRG (AID 2283454); details: actives raise or lower the signal; mRNA level, 48 h
Summary of the method: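 Differentiated HepaRG cells in serum-free induction medium were exposed in duplicate for 48 h to eight half-log concentrations up to 100 uM in 0.5% DMSO. CYP1A1 mRNA was quantified by TaqMan qRT-PCR, normalized to ACTB, GAPDH and POLR2A.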

[4] = read-out: Cytochrome P450 (CYP24A1), CYP24A1 (gene 1591); assay: LTEA_HepaRG_CYP24A1: Life Technologies and Expression Analysis (LTEA) Assay for Cytochrome P450 (CYP24A1) using HepaRG (AID 2283478); details: actives raise or lower the signal; mRNA level, 48 h
Summary of the method: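 Differentiated HepaRG cells, pre-cultured 48 h, were exposed in duplicate for 48 h in serum-free induction medium to 8 half-log concentrations (top 100 uM, 0.5% DMSO). CYP24A1 mRNA was quantified by TaqMan qRT-PCR, normalized to ACTB/GAPDH/POLR2A, fitted bidirectionally versus DMSO.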

[5] = read-out: Cytochrome P450 (CYP2B6), CYP2B6 (gene 1555); assay: LTEA_HepaRG_CYP2B6: Life Technologies and Expression Analysis (LTEA) Assay for Cytochrome P450 (CYP2B6) using HepaRG (AID 2283481); details: actives raise or lower the signal; mRNA level, 48 h
Summary of the method: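 Differentiated HepaRG cells, serum-free induction medium, exposed 48 h in duplicate to 8-point half-log concentrations from 100 uM in 0.5% DMSO. CYP2B6 mRNA by qRT-PCR, normalized to ACTB, GAPDH, POLR2A; bidirectional fit versus DMSO.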

CYP2C8 (gene 1558) = assay: LTEA_HepaRG_CYP2C8: Life Technologies and Expression Analysis (LTEA) Assay for CYP2C8 using HepaRG (AID 2283483); details: actives raise or lower the signal; mRNA level, 48 h
Summary of the method: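 CYP2C8 expression measured by TaqMan qRT-PCR and normalized to three housekeeping genes. HepaRG cultures were treated for 48 h with an eight-point half-log series topping at 100 uM, vehicle 0.5% DMSO, duplicates; fitted both directions against DMSO.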

CYP2E1 (gene 1571) = assay: LTEA_HepaRG_CYP2E1: Life Technologies and Expression Analysis (LTEA) Assay for CYP2E1 using HepaRG (AID 2283485); details: actives raise or lower the signal; mRNA level, 48 h
Summary of the method: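 CYP2E1 transcript measured by Fluidigm qRT-PCR against three housekeeping genes in human HepaRG cells treated 48 h (top 100 uM, half-log steps, 0.5% DMSO vehicle). Gain or loss fitted relative to DMSO baseline.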

CYP4A11 (gene 1579) = assay: LTEA_HepaRG_CYP4A11: Life Technologies and Expression Analysis (LTEA) Assay for CYP4A11 using HepaRG (AID 2283486); details: actives raise or lower the signal; mRNA level, 48 h
Summary of the method: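 Differentiated HepaRG cells, serum-free induction medium, exposed 48 h in duplicate to 8-point half-log series from 100 uM in 0.5% DMSO. CYP4A11 mRNA measured by qRT-PCR, normalized to ACTB, GAPDH, POLR2A; bidirectional fit versus DMSO.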

[6] = read-out: Cytochrome P450 4A22 (Homo sapiens) (UniProt Q5TCH4); assay: LTEA_HepaRG_CYP4A22: Life Technologies and Expression Analysis (LTEA) Assay for Cytochrome P450 4A22 (CYP4A22) using HepaRG (AID 2283495); details: actives raise or lower the signal; mRNA level, 48 h
Summary of the method: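 qRT-PCR of CYP4A22 mRNA (Fluidigm TaqMan, normalized to three housekeeping genes) after 48 h chemical exposure of HepaRG cells; 8-point half-log series, top 100 uM, 0.5% DMSO vehicle. Bidirectional curve fitting vs DMSO baseline.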

[7] = read-out: Cytochrome P450 7A1 (Homo sapiens) (UniProt P22680); assay: LTEA_HepaRG_CYP7A1: Life Technologies and Expression Analysis (LTEA) Assay for Cytochrome P450 7A1 (CYP7A1) using HepaRG (AID 2283496); details: actives raise or lower the signal; mRNA level, 48 h
Summary of the method: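 HepaRG, 48 h exposure, 8-pt half-log series from 100 uM, 0.5% DMSO vehicle, duplicates. Readout: TaqMan qRT-PCR mRNA vs three housekeeping genes; bidirectional curve fit against DMSO baseline.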

[8] = read-out: Nuclear factor NF-kappa-B p105 subunit (Homo sapiens) (UniProt P19838); assay: LTEA_HepaRG_NFKB1: Life Technologies and Expression Analysis (LTEA) Assay for Nuclear Factor Kappa B Subunit 1 (NFKB1) using HepaRG (AID 2283521); details: actives raise or lower the signal; mRNA level, 48 h;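 further: differentiated human HepaRG liver cells in serum-free induction medium; TaqMan qRT-PCR transcript normalised to ACTB GAPDH and POLR2A housekeeping genes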
Summary of the method: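 HepaRG, 48 h exposure; 8-pt half-log series from 100 uM in 0.5% DMSO; duplicates. Readout: NFKB1 mRNA by qRT-PCR (Fluidigm arrays), housekeeping-normalized. Gain/loss fit vs DMSO baseline.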

[9] = read-out: Nuclear factor erythroid 2-related factor 2 (Homo sapiens) (UniProt Q16236); assay: LTEA_HepaRG_NFE2L2: Life Technologies and Expression Analysis (LTEA) Assay for Nuclear factor erythroid 2-related factor 2 (NFE2L2) Transcription Factor using HepaRG (AID 2283527); details: actives raise or lower the signal; mRNA level, 48 h
Summary of the method: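 NFE2L2 transcript level was read by qRT-PCR (housekeeping ACTB/GAPDH/POLR2A normalisation) after 48 h chemical treatment of HepaRG in serum-free induction medium. Duplicate 8-point half-log curves, top 100 uM, 0.5% DMSO vehicle; up- or down-regulation fitted against vehicle.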

[10] = Tanguay_ZF_120hpf_BRAI_legacy: (Legacy) Oregon State University Tanguay Lab 120 Hour Post-fertilization zebrafish Assay for Brain Malformation (AID 2283641; active means hit-call score of the fitted dose curve at least 0.9, where 1 is the maximum)
Summary of the method: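 Tropical 5D wild-type zebrafish embryos were exposed statically in sealed, foil-covered plates at 28C until 120 hpf, with 0.64% (vol/vol) final DMSO. Brain malformation was scored present/absent by brightfield microscopy, relative to DMSO baseline.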

[11] = STM_H9_OrnithineISnorm_perc: Stemina devTOX quickPredict H9 human embryonic stem cell (hESC)-based Assay for Ornithine (ORN) Metabolite Biomarker, Normalized (AID 2283712);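 further: ornithine released into spent medium during last day measured by mass spectrometry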
Summary of the method: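 Ornithine in spent medium from the last 24 h of a 72 h exposure, deproteinised and quantified by UPLC-HRMS against an isotope-labelled internal standard, expressed relative to 0.1% DMSO. Pluripotent H9 cells; compound refreshed every 24 h.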

[12] = STM_H9_CystineISnorm_perc: Stemina devTOX quickPredict H9 human embryonic stem cell (hESC)-based Assay for Cystine (CYSS) Metabolite Biomarker, Normalized (AID 2283713)
Summary of the method: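 Cystine in spent media from the last 24 h of a 72 h H9 hESC exposure (daily re-dosing), measured by UPLC-HRMS. Values normalized to isotopic internal standard, then to 0.1% DMSO; viability via CellTiter-Fluor.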

[13] = CCTE_Deisenroth_AIME_384WELL_CTox_Active: Cytotoxicity Assessment (CTOX) in CCTE's 384-well Estrogen Receptor Transactivation Assay with AIME metabolic competence (metabolism positive), Deisenroth Lab (AID 2284037; active means hit-call score of the fitted dose curve at least 0.9, where 1 is the maximum;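 further: chemicals first conditioned 2 h by alginate-bound induced rat liver S9 before cells; activity means signal loss indicating cell death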)
Summary of the method: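 Cytotoxicity in VM7Luc4E2 breast cells, 24 hour, measured as protease-substrate fluorescence loss, after 2-hour metabolic conditioning with induced rat hepatic S9 in alginate microspheres. Concentrations 0.002 - 200 uM, 10 points, bidirectional fitting.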

[14] = CCTE_Deisenroth_AIME_384WELL_CTox_Inactive: Cytotoxicity Assessment (CTOX) in CCTE's 384-well Estrogen Receptor Transactivation Assay without AIME metabolic competence (metabolism negative), Deisenroth Lab (AID 2284039; active means hit-call score of the fitted dose curve at least 0.9, where 1 is the maximum;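 further: cell viability via live-cell protease substrate cleaved to fluorescent probe; cells exposed 24 h to medium preincubated 2 h with alginate-water beads without S9; loss of fluorescence signal means loss of viability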)
Summary of the method: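 Metabolism-negative arm: chemicals (10-point, 0.002 - 200 uM) preincubated 2 h with alginate-water lids, medium moved onto VM7Luc4E2 cells for 24 h. Fluorescent live-cell protease readout; bidirectional curve fit.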

[15] = biological target: Estrogen receptor (Homo sapiens) (UniProt P03372); assay: CCTE_Deisenroth_AIME_384WELL_LUC_Shift: CCTE's 384-well Estrogen Receptor Transactivation Assay with AIME metabolic competence data shift (ERTA luciferase; difference in metabolism positive and negative), Deisenroth Lab (AID 2284041);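 further: shift is response with S9 minus without S9 so positive means metabolism raised ER signal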
Summary of the method: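 Test chemicals (0.002–200 uM, 10-point) were pre-incubated 2 h with alginate microspheres containing phenobarbital/beta-naphthoflavone-induced male Sprague Dawley rat liver S9 or water, then medium was transferred to VM7Luc4E2 cells for 24 h luciferase readout; shift = S9-positive minus S9-negative normalized response.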

Measured: AC50

CCCCc1oc2ccccc2c1C(=O)c1cc(I)c(OCCN(CC)CC)c(I)c1
active: [1] 6.5 µM | [2] 10.1 µM | [3] 16 µM | [5] 60.4 µM | CYP2C8 (gene 1558) 70.8 µM | CYP2E1 (gene 1571) 47.5 µM | CYP4A11 (gene 1579) 57.7 µM | [6] 57.6 µM | [7] 62.9 µM | [9] 64.8 µM | [11] 7.38 µM | [13] 100 µM | [14] 100 µM
inactive: [4] | [8] | [10] | [12] | [15]
